Data taken from patent publication US20090069271A1, “WOOD TREATMENT” (priority 2005, published 2009).
Where “and” joins values, the source holds several entries; their conditions need not be identical. Equal values may be shown once.

Experiment: Treatment trials: boric acid equivalent content (BAE) of treated timber by titration
Parameters: species or system Pinus radiata
Conditions: Trial 4

CCCCCCCCCCCCCCCCOB(OCCCC)OCCCCCCCCCCCCCCCC [di hexadecanyl,n-butyl borate]
BAE concentration in timber by titration: 0.15 % m/m and 0.096 % m/m
